Measured values taken from PMC9795622.
No constants are given. Whether binding was seen depends on the method and setting. Binding seen in cells or lysates may run through a third protein. These calls come from enrichment with a bait or labelling near it, and not all partners need be listed. Tags and fused reporters may be left off the sequences shown.

Protein sequences, listed by entry. Tags and fused reporters are not part of them.
UniProt Q86U44: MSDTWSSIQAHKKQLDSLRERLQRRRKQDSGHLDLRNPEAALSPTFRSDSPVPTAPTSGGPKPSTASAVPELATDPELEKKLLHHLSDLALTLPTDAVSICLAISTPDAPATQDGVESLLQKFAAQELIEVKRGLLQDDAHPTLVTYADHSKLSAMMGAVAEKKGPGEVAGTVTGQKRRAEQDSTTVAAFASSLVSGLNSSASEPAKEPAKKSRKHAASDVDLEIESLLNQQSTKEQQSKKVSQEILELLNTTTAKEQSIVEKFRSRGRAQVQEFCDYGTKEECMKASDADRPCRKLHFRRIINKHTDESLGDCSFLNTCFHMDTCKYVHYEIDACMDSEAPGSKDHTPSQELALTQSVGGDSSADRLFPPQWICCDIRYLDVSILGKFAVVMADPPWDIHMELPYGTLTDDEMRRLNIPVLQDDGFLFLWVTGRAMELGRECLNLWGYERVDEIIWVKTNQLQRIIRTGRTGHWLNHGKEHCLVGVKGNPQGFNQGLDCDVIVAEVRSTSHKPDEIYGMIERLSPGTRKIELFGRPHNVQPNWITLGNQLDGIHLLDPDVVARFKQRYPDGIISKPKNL

Target: T1, FLAG-tagged SMYD3 (UniProt Q9H7B4)
T1 sequence: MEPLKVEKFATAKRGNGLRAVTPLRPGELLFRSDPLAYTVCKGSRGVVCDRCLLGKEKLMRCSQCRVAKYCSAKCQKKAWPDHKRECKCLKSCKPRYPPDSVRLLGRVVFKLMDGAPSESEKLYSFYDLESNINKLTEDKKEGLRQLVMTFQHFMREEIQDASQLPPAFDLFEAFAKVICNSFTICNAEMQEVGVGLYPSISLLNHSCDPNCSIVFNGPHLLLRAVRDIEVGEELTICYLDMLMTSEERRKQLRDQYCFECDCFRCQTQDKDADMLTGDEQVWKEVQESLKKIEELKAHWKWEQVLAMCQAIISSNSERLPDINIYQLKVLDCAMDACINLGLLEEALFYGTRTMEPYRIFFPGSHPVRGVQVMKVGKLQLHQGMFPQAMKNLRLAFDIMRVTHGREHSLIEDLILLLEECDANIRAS
Assay: affinity purification with mass spectrometry; lysates of LM3 cells expressing FLAG-SMYD3 or FLAG-Vector on anti-FLAG M2 beads, about 1 h at room temperature, eluted with FLAG peptide (0.2 mg/ml), SDS-PAGE, silver stain, LC-MS/MS

Substance: METTL3 (from UniProt Q86U44 1-580)
- binding: binds
